# ± gives the standard deviation. Only a part is listed here, and it is no random draw. The uncertainty is large for many entries.
# Test system: MIWI (PIWIL1) piRISC loaded with Kctd7 piRNA (30 nt)
# Assay: pre-steady-state target cleavage rate (min^-1); MIWI and MILI are mouse PIWI proteins and EfPiwi is from a freshwater sponge; tags in brackets are library labels; higher = faster piRNA-guided slicing of the target
# Settings: guide: Kctd7 piRNA 5'p-UGUUAAUCUCUCAGAGAAGGUGACAGUGAU; auxiliary factor: 500 nM mouse GTSF1
# In short: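 Sequencing of uncleaved targets, normalised to depth and to weakly complementary targets, was the readout of this Cleave-'n-Seq assay. A transcribed, DNA-blocked target RNA library (0.1 nM) was mixed with 1 nM active affinity-purified piRISC carrying one synthetic guide, with or without 500 nM GTSF1 partner protein, in HEPES–potassium acetate buffer at 33 °C for 0–8 or 0–960 min. Three trials were pooled, k3 was capped at 0.0001 min^-1, and a burst-and-steady-state fit gave the pre-steady-state cleavage rate.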
row,Sequence,pre-steady-state target cleavage rate
1,UAGUGACUCACCAACUCUGAGAGAUUAUGA,0.000235 ± 0.018
2,UAGUGACAGUCCAUCUCUGACAGAUUAACA,0.000233 ± 0.027
3,UAGUGACACACCUUGUCUGAGAGAUUUUGA,0.00126 ± 0.0057
4,UACACUGUCACCUAGACUGAGAGAUUAAGA,0.00191 ± 0.0086
5,UAGUGACACACCUUCACUGAGAGAUAUUGA,0.00218 ± 0.007
6,UAGUGACAGUGCUUCACUGAGACAUUAACA,0.000533 ± 0.012
7,UAGUCUGUCACCUUCUCUGAGACAUAUUGA,0.00133 ± 0.0059
8,UAGUGACUCACCUUCUCUGACUCAUUAUGA,0.000226 ± 0.017
9,UAGUCUGUCACCUUCUCUCUCAGAUUAAGA,0.00106 ± 0.0084
10,UAGUGACAGUGGAAGAGACAGAGGUUAACA,0.000245 ± 0.017
11,UAGUGACACACCUUCUGAGAGAGAUUUUGA,0.00187 ± 0.0082
12,UAGUGACUCACCUUCUGAGAGAGAUUAUGA,0.000588 ± 0.012
13,UAGUGACAGUGGAACUCUGAGACAUAAACA,0.0013 ± 0.013
14,UAGUGACAGUGGAAGAGAGAGAAAUUAACA,0.000168 ± 0.033
15,UAGUGACAGUCCUUCACUGAGAGAAUAACA,0.00126 ± 0.0074
16,UAGUGAGUCACCUAGUCUGAGAGAUUUUGA,0.00034 ± 0.025
17,UAGUGACAGUCCUUCUCUGAGAGUUUUACA,0.0012 ± 0.0051
18,UAGUCUGUCACGUUCUCUGAGAGAUAUUGA,0.00134 ± 0.0055
19,UAGUGACAGUCCUUCUCUGAGAGAUUAAACA,0.0368 ± 0.0052
20,UAGACUGUCACCUUGACUGAGAGAUAUUGA,0.000659 ± 0.0072
21,UAGUGACAGUCCUUCACUCAGAGAUUAACA,0.000828 ± 0.011
22,UUCACUGUCACCUUCUCUGACUGAUAUUGA,0.00148 ± 0.0054
23,UAGUGACAGUCCUUCUCUGAGACAUUAUCA,0.00032 ± 0.014
24,UAGUGAGUCACCUUCAGAGAGAGAUUAAGA,0.00202 ± 0.0083

# Look-ups from the results shown.
# pre-steady-state target cleavage rate with UAGUGACACACCUUCACUGAGAGAUAUUGA reads 0.00218 ± 0.007
# pre-steady-state target cleavage rate with UAGUGACUCACCUUCUCUGACUCAUUAUGA reads 0.000226 ± 0.017
# pre-steady-state target cleavage rate with UAGUGAGUCACCUUCAGAGAGAGAUUAAGA reads 0.00202 ± 0.0083

# (cont.)

row,Sequence,pre-steady-state target cleavage rate
1,UAGUGACAGACCUUCUCUGAGAGAUAUUGA,0.00217 ± 0.0055
2,UAGACUGUCACCUUCUCUGAGACUAUAUGA,0.000121 ± 0.014
3,UAGUCUGUCACCUUCACUGAGAGAUUUUGA,0.176 ± 0.046
4,UAGUGACAGUCCUUCUCUCAGUGAUUAACA,0.002 ± 0.0039
5,UAGUGACAGACCUACUGUGAGAGAUUAACA,0.0025 ± 0.0049
6,AUCACUGGCACCUUCUCUGAGAGAUUAACA,0.724 ± 0.17
7,UAGUGACUCACCUUCUCUGAGUCUUUAACA,0.00077 ± 0.011
8,UAGUGACAGACCUUCUGUGAGAGAUUUUGA,0.00132 ± 0.01
9,UAGACUGUCACCUUCUCUGACAGAUUAAGA,0.00143 ± 0.004
10,UAGUGACAGUGCUUCUCGUGAGAGAUUAACA,0.000944 ± 0.0095
11,UAGACUGUCACCUAGACUGAGAGAUUAAGA,0.000541 ± 0.01
12,UAGACUGUCACCUUCUGACAGAGAUAUUGA,0.000132 ± 0.037
13,UAGUGACAGUGGAAGAGUGAGAAUUAACA,0.000266 ± 0.031
14,UAGUGACAGACCUUCUCUGUGACAUUAACA,0.00672 ± 0.0033
15,AUCUACUGUCACCUUCUCUGAGAGAUUAACA,0.719 ± 0.041
16,UAGUGACUCAGGUUCUCUGAGAGAUUAAGA,0.000279 ± 0.021
17,UAGUGACAGUCCUUCUCUGAGUGAUUUACA,0.000996 ± 0.0071
18,UACACUGUCAGCUUCUCUGAGAGAUUAACA,0.655 ± 0.027
19,UAGUGACAGUGCUUCUCUCAGAGAUUUACA,0.00104 ± 0.0069
20,UAGUGACUCUACCUUCUCUGAGAGAUUAACA,0.122 ± 0.014
21,UAGACUGUCACCUUCUCUGAUGAGAUUAACA,0.00209 ± 0.0042
22,UAGUGACAGACCUUGACUGAGAGAUUUUGA,0.000212 ± 0.036
23,UAGUGACAGACCUUCUCUGAGAGUAAAAGA,0.000351 ± 0.02
24,UAGUGACAGACCUUCUGUGAGAGAUUAUGA,0.00251 ± 0.0063

row,Sequence,pre-steady-state target cleavage rate
1,UAGUGACACACCUUCACUGAGAGAUUUUGA,0.00288 ± 0.0044
2,UAGUGAGUCACCUUGCUCUGAGAGAUUAACA,0.332 ± 0.07
3,AUCUCUGUCACCUACUCUGAGAGAUUAACA,0.627 ± 0.042
4,UAGUCUGUCACCUUCUCUCUCUCUAAUUGA [g13:g26:cont:t1A],0.000844 ± 0.0095
5,AUCACUCAGACCUUCUCUGAGAGAUUAUGA,0.00269 ± 0.005
6,UACACUGUCACCUUCUCUGUCAGAUAUUGA,0.00314 ± 0.0065
7,UAGUGACAGUCCUUCUCUCAGAGAUAAACA,0.00145 ± 0.0053
8,UAGUGACAGUCCUACUCUGUGAGAUUAACA,0.000559 ± 0.016
9,UAGACUGAGUCCUUCUCUGAGAGAUUAUGA,0.00278 ± 0.0029
10,UAGACUGUCACCUUCUGAGAGAGAUAUUGA,0.000482 ± 0.011
11,UAGUGACAGUGGAACUCUGAGUGAUUAUCA,0.000537 ± 0.022
12,AACACUGUCACCUUCUCUGAGAGAUUAACA,0.746 ± 0.03
13,AUCACUGUCACCUUCACUGAGACAUUAACA,0.252 ± 0.024
14,UAGUGACAGUCCUUGAGUGAGAGAUUAACA,0.000622 ± 0.011
15,UUCACUGUCAGGAUCUCUGAGAGAUUAUGA,0.00122 ± 0.0051
16,UAGACUGUCACGUUCUCUGAGAGAUAUUGA,0.000286 ± 0.014
17,UUCACUGUCACCUUCUCUGUGAGAUUUACA,0.158 ± 0.027
18,UAGUGACAGUCGUUCUCUGUGAGAUUAACA,0.000148 ± 0.034
19,UAGUGACAGUGGAUCUCUGAGAGAUUAACG [g2:g17:cont:t1G],0.000903 ± 0.0071
20,UUCACUGUCACCAUCUCUGUGAGAUUAACA,0.215 ± 0.015
21,UAGUGACAGUGGAAGUCUGAGCAGAUUAACA,0.000116 ± 0.033
22,UAGUGACAGACCUUCUCUGAGAGAUAAAGA,0.00221 ± 0.005
23,UUCACUGUGUGCUUCUCUGAGAGAUUAUGA,0.00113 ± 0.0063

# Source: the supplement of paper PMC10338343
